According to PMC3540053:
These are yes or no findings as the source states them, for the method shown.

T1: OsCOI2(F91Y, H391Y, N477Y) (Oryza sativa) (UniProt Q84QA7)
T1 sequence: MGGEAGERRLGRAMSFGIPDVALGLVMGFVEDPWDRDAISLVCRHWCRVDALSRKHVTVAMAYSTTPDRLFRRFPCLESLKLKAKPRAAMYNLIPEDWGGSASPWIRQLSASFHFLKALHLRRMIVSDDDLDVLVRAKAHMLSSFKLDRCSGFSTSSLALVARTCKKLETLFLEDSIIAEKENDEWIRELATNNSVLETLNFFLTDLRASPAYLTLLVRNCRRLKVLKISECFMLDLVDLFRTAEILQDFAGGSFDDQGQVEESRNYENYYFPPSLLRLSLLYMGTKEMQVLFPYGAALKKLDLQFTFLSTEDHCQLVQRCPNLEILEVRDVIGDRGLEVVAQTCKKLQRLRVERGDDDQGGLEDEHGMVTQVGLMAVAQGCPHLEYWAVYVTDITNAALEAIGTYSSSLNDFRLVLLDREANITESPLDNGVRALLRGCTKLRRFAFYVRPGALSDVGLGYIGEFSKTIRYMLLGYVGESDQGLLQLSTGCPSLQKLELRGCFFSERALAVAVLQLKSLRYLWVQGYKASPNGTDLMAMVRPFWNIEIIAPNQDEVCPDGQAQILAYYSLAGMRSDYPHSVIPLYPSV

T2: OsCOI2 (Oryza sativa) (UniProt Q84QA7)
T2 sequence: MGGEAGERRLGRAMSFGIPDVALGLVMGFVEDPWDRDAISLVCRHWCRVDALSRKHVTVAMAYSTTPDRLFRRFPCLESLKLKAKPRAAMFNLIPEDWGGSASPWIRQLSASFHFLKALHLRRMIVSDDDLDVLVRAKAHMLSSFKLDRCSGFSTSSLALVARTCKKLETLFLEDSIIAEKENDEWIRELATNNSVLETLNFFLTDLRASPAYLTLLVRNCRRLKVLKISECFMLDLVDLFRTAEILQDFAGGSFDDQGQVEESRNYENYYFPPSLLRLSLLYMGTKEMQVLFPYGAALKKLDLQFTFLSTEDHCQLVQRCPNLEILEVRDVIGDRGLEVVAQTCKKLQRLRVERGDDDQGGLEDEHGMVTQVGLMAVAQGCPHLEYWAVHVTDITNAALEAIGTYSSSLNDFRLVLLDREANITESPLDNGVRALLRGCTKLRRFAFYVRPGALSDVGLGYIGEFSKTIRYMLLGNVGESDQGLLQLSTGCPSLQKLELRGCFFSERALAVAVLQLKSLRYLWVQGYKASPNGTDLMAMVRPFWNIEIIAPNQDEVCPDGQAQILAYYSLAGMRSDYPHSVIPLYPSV

T3: OsCOI2(H391Y) (Oryza sativa) (UniProt Q84QA7)
T3 sequence: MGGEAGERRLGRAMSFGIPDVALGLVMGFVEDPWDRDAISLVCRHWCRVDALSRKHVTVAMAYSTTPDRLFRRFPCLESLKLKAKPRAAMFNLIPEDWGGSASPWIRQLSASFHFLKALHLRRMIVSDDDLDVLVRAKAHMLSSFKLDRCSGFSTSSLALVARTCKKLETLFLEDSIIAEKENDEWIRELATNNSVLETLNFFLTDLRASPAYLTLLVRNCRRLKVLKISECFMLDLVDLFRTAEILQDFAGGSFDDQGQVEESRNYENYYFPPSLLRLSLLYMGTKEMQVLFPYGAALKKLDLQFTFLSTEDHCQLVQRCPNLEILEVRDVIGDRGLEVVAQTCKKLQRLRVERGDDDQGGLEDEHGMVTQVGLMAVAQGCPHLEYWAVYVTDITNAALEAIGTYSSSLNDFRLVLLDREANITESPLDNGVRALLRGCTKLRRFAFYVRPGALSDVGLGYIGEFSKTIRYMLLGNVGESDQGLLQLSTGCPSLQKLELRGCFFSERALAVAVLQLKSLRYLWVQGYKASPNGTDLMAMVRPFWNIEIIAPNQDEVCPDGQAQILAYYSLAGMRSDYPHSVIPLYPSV

T4: OsCOI1a(N475Y) (Oryza sativa) (UniProt Q6Y9P5)
T4 sequence: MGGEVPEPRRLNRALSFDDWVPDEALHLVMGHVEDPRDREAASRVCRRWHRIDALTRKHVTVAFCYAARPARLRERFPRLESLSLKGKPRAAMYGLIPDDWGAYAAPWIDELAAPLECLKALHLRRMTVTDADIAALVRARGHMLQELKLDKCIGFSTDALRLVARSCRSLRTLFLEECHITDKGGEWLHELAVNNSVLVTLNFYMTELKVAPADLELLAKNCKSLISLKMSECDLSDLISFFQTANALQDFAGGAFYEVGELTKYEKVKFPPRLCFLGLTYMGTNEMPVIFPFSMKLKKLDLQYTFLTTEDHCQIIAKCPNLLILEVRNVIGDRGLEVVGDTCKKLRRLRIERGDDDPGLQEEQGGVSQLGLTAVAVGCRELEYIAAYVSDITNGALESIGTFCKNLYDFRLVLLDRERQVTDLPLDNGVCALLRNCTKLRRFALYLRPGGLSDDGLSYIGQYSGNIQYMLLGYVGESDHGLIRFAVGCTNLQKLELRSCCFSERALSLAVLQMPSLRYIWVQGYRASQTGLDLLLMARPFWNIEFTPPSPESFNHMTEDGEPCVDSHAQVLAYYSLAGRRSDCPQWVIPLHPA


What was measured:
Experiment in all cases: two-hybrid; OsCOIs as baits in pGBKT7, OsJAZs or JAZs as preys in pGADT7, co-transformed into S. cerevisiae AH109; growth on SD without Ade, His, Leu and Trp (QDO) with 100 µM coronatine, 7 days; graded strong (+++), medium (++), weak (+), undetectable (−)
[1] = target: T1, OsCOI2(F91Y, H391Y, N477Y) (Oryza sativa)
OsCOI2 (Oryza sativa) = target: T2, OsCOI2 (Oryza sativa)
[2] = target: T3, OsCOI2(H391Y) (Oryza sativa)
[3] = target: T4, OsCOI1a(N475Y) (Oryza sativa)

| binding [1] | binding (OsCOI2 (Oryza sativa)) | binding [2] | binding [3] | Binder |
| --- | --- | --- | --- | --- |
| no binding | no binding | no binding | no binding | OsJAZ12 (protein, UniProt Q6Z2K1 1-157) MPPPAAVASLTLQVPGGAHDVTSLATSPRTMAVPGTTEQLTIFYSGSMVKFDNVPREKIRYACRLRRLYSSLQRSLQTQDTSMFPSSSSLHIQTKRRGYSVIRLLREMLMVCSSTRTKPMLVHSDSIGAQRTGTPPSRRRIHARGKSRSCQEMSHCW |
| no binding | no binding | no binding | no binding | OsJAZ4 (protein, UniProt Q10QW3 1-187) MAMEGKSRRFAVACGVLSQYVRAEQKMAAAAGAAPARAVTTLSLMPGAEVVVEEEERREVGEEEAGPATAPAAPLTIFYGGRMVVFEDFPADKAAEVMRMASSGMAAAPAQREGAALADMPIMRKASLQRFFAKRKDRLAATTPYARPSPAETKASEPEEKKTPTSWLDLAASASAAARRDSLTIAL |
| no binding | no binding | no binding | no binding | OsJAZ3 (protein, UniProt Q8GSI0 1-179) MASTDPMTRRFAVACGVLSQYVKANSSQPSTAAPVAQGVSGLMAAAAAAAAAPVVQEPGCEVDGGGQQFTIFYAGKVVVIDRCTPAMAAELMRFASAAQGGGGAPEAPPALVDMPIARKASLKRFLAKRKATPASARSSYVVRAAAAEEEQPPAKKAKAAVERREDWLALGSLGHMHSR |
